Results deposited as PubChem BioAssay AID1159579 (Peter MacCallum Cancer Centre, 2015)

Aim: 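Retest candidate lymphatic endothelial migration regulators using several independent siRNAs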 (follow-up of hits)
System: human dermal lymphatic endothelial cells
Reagent: single siRNA against human genes, 25 nM
Detection: 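High content images of wound closure area and cell nuclei counts, each the average of two wells, expressed against mock transfection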
Reading the numbers: migration relative to mock: higher = more migration into the scratch; mean nuclei count: higher = more cells remaining
Call rule: 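Called active when the migration ratio is 0.6 or lower (impaired) or 1.3 or higher (accelerated), but inactive whenever the mean nuclei count falls under 3300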
Calls: active = migration changed (impaired or accelerated); inactive = no migration change, or too few cells
This is an unselected part of about 2,000 reagents. In the full data, 549 (27%) were called active. 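Some migration ratios are negative; siRNAs with too few cells are inactive whatever their migration ratio.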 The numbers tell different reagents against one gene apart. No sequences are given here. Not stated in the record: the time to read-out.

{"target gene": "TAS1R2", "reagent no.": 1, "migration relative to mock": -1.06, "migration and cell number class": "too few cells; migration not scored", "mean nuclei count": 1398, "call": "inactive"}
{"target gene": "TAS1R2", "reagent no.": 2, "migration relative to mock": 0.84, "migration and cell number class": "no change in migration or cell number", "mean nuclei count": 5216, "call": "inactive"}
{"target gene": "TAS1R2", "reagent no.": 3, "migration relative to mock": 0.63, "migration and cell number class": "no change in migration or cell number", "mean nuclei count": 5216, "call": "inactive"}
{"target gene": "TAS1R2", "reagent no.": 4, "migration relative to mock": 0.76, "migration and cell number class": "no change in migration or cell number", "mean nuclei count": 5053, "call": "inactive"}
{"target gene": "DGKE", "reagent no.": 1, "migration relative to mock": 1, "migration and cell number class": "no change in migration or cell number", "mean nuclei count": 6418, "call": "inactive"}
{"target gene": "DGKE", "reagent no.": 2, "migration relative to mock": 0.84, "migration and cell number class": "no change in migration or cell number", "mean nuclei count": 6636, "call": "inactive"}
{"target gene": "DGKE", "reagent no.": 3, "migration relative to mock": 0.81, "migration and cell number class": "no change in migration or cell number", "mean nuclei count": 6377, "call": "inactive"}
{"target gene": "DGKE", "reagent no.": 4, "migration relative to mock": -0.56, "migration and cell number class": "too few cells; migration not scored", "mean nuclei count": 1956, "call": "inactive"}
{"target gene": "TES", "reagent no.": 1, "migration relative to mock": 0.36, "migration and cell number class": "migration reduced", "mean nuclei count": 4864, "call": "active"}
{"target gene": "TES", "reagent no.": 2, "migration relative to mock": 0.88, "migration and cell number class": "no change in migration or cell number", "mean nuclei count": 5566, "call": "inactive"}
{"target gene": "TES", "reagent no.": 3, "migration relative to mock": 1.08, "migration and cell number class": "no change in migration or cell number", "mean nuclei count": 6044, "call": "inactive"}
{"target gene": "TES", "reagent no.": 4, "migration relative to mock": 0.04, "migration and cell number class": "migration reduced", "mean nuclei count": 3600, "call": "active"}
{"target gene": "CHSY3", "reagent no.": 1, "migration relative to mock": 0.62, "migration and cell number class": "no change in migration or cell number", "mean nuclei count": 6134, "call": "inactive"}
{"target gene": "CHSY3", "reagent no.": 2, "migration relative to mock": 0.36, "migration and cell number class": "migration reduced", "mean nuclei count": 4455, "call": "active"}
{"target gene": "CHSY3", "reagent no.": 3, "migration relative to mock": 0.46, "migration and cell number class": "migration reduced", "mean nuclei count": 3908, "call": "active"}
{"target gene": "CHSY3", "reagent no.": 4, "migration relative to mock": 0.9, "migration and cell number class": "no change in migration or cell number", "mean nuclei count": 5382, "call": "inactive"}
{"target gene": "FBXL18", "reagent no.": 1, "migration relative to mock": 0.8, "migration and cell number class": "no change in migration or cell number", "mean nuclei count": 5326, "call": "inactive"}
{"target gene": "FBXL18", "reagent no.": 2, "migration relative to mock": 0.74, "migration and cell number class": "no change in migration or cell number", "mean nuclei count": 7190, "call": "inactive"}
{"target gene": "FBXL18", "reagent no.": 3, "migration relative to mock": 0.94, "migration and cell number class": "no change in migration or cell number", "mean nuclei count": 5662, "call": "inactive"}
{"target gene": "FBXL18", "reagent no.": 4, "migration relative to mock": 0.82, "migration and cell number class": "no change in migration or cell number", "mean nuclei count": 5604, "call": "inactive"}
{"target gene": "DNM1L", "reagent no.": 1, "migration relative to mock": 1, "migration and cell number class": "no change in migration or cell number", "mean nuclei count": 6490, "call": "inactive"}
{"target gene": "DNM1L", "reagent no.": 2, "migration relative to mock": 0.64, "migration and cell number class": "no change in migration or cell number", "mean nuclei count": 6071, "call": "inactive"}
{"target gene": "DNM1L", "reagent no.": 3, "migration relative to mock": 1.01, "migration and cell number class": "no change in migration or cell number", "mean nuclei count": 6406, "call": "inactive"}
{"target gene": "DNM1L", "reagent no.": 4, "migration relative to mock": 0.38, "migration and cell number class": "migration reduced", "mean nuclei count": 4336, "call": "active"}
{"target gene": "NODAL", "reagent no.": 1, "migration relative to mock": 1.06, "migration and cell number class": "no change in migration or cell number", "mean nuclei count": 6104, "call": "inactive"}
{"target gene": "NODAL", "reagent no.": 2, "migration relative to mock": 0.75, "migration and cell number class": "no change in migration or cell number", "mean nuclei count": 5890, "call": "inactive"}
{"target gene": "NODAL", "reagent no.": 3, "migration relative to mock": 0.76, "migration and cell number class": "no change in migration or cell number", "mean nuclei count": 4246, "call": "inactive"}
{"target gene": "NODAL", "reagent no.": 4, "migration relative to mock": -0.52, "migration and cell number class": "too few cells; migration not scored", "mean nuclei count": 2674, "call": "inactive"}
{"target gene": "NUCLEOLIN", "reagent no.": 1, "migration relative to mock": 0.86, "migration and cell number class": "no change in migration or cell number", "mean nuclei count": 7322, "call": "inactive"}
{"target gene": "NUCLEOLIN", "reagent no.": 2, "migration relative to mock": 1.13, "migration and cell number class": "no change in migration or cell number", "mean nuclei count": 7110, "call": "inactive"}
{"target gene": "NUCLEOLIN", "reagent no.": 3, "migration relative to mock": 0.98, "migration and cell number class": "no change in migration or cell number", "mean nuclei count": 5938, "call": "inactive"}
{"target gene": "NUCLEOLIN", "reagent no.": 4, "migration relative to mock": 1.1, "migration and cell number class": "no change in migration or cell number", "mean nuclei count": 5197, "call": "inactive"}
{"target gene": "ANGPT2", "reagent no.": 1, "migration relative to mock": 0.8, "migration and cell number class": "no change in migration or cell number", "mean nuclei count": 5984, "call": "inactive"}
{"target gene": "ANGPT2", "reagent no.": 2, "migration relative to mock": 0.56, "migration and cell number class": "migration reduced", "mean nuclei count": 5910, "call": "active"}
{"target gene": "ANGPT2", "reagent no.": 3, "migration relative to mock": -0.78, "migration and cell number class": "migration reduced", "mean nuclei count": 3372, "call": "active"}
{"target gene": "ANGPT2", "reagent no.": 4, "migration relative to mock": 0.4, "migration and cell number class": "migration reduced", "mean nuclei count": 3718, "call": "active"}
